Results as given in the supplement of paper PMC3334620.
Over roughly 33,000 sequences, “E-score (-0.5 to 0.5)” has its median near -0.015; the highest 2% begin near 0.3. This is one part of the list.

Target: T1, Abf1 (UniProt P14164)
T1 sequence: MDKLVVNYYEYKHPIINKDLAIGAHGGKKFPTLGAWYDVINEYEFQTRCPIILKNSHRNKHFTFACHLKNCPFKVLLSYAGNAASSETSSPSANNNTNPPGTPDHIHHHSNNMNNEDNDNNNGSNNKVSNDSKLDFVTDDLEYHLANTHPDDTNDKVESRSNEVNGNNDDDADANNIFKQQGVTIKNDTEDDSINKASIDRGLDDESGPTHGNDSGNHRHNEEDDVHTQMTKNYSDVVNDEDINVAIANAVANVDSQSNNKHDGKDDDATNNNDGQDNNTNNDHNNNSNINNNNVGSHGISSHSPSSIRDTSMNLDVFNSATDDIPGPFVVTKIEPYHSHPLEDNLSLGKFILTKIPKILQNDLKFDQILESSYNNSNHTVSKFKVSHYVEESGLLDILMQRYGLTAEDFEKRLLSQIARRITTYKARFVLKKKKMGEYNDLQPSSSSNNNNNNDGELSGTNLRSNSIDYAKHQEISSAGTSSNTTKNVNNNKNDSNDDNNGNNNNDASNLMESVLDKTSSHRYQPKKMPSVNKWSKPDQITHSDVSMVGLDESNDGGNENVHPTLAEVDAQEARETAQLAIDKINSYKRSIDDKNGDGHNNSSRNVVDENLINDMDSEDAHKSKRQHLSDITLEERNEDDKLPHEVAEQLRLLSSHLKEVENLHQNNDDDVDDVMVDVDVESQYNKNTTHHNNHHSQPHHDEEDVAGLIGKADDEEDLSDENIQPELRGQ
Assay: PBM E-score (8-mer binding enrichment) (E-score (-0.5 to 0.5)); higher = stronger / more preferred TF binding
Conditions: protein concentration: 200 nM; construct: GST-full length
Summary of the method: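 PURExpress in vitro transcription/translation supplied GST-tagged yeast transcription factors, either full-length or DNA-binding domain. Applied at about 100-200 nM to universal all-10-mer Agilent arrays double-stranded by primer extension, the bound protein was detected with fluorescent anti-GST. E-scores, modified Wilcoxon-Mann-Whitney statistics, were given by the Universal PBM Analysis Suite to ungapped eight-base words pooled with their reverse complements after masliner normalisation.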

Sequence | PBM E-score
CTATGACA | 0.0945
GTACACAA | 0.184
GTACAACA | 0.197
ACGATGGC | 0.0358
AACAGAAA | -0.0575
CGTCTTGA | 0.199
AAGACGCA | -0.15
GCGCCCGA | -0.114
AGTTTTAG | -0.0916
GTTACTTA | 0.133
TAGCGACA | 0.288
CACCAGAG | -0.146
AGCTCCAC | -0.216
AAATAAGG | -0.0719
ATCGGCGC | -0.0687
ACGCCTCA | -0.0655
GCATTAAC | -0.0317
GGTATAAC | 0.0343
ACACGATG | 0.203
AGGAAGAC | -0.114
TCATCGGA | 0.103
TCGGGGCA | -0.0893
CGCTAACC | -0.108
TAGGATAA | 0.183
ATCGTCAC | 0.389

Sequence | PBM E-score
ACATTTTC | 0.158
GACCTCCC | -0.137
CCAGAAGG | -0.174
GTGCTTAA | 0.0641
ACTGACAA | 0.129
GCAAGTCA | 0.1
ACAACTAA | 0.135
GGACATGA | 0.0626
ATCCTAAA | -0.0804
ACCTAATA | 0.244
AGGACTGG | -0.213
CCTCCTAG | -0.0889
CTCCAGAG | -0.074
GTGACATA | 0.43
GGTCGCGA | 0.206
AGGGTGCC | -0.143
ATAGTCAA | 0.0287
GGGTGTAA | -0.157
ACCAAGGG | -0.308
AATTCAAA | 0.155
ACGGACAT | 0.191
CACAAAGG | -0.116
AGCAGACA | -0.299
CCCACTGA | -0.0846
CCCAGTCC | -0.132

Sequence | PBM E-score
CCACAGCC | -0.177
TAGATGGA | -0.105
GAGTCCGC | -0.305
ATCACAAT | 0.113
CACGGAAA | 0.267
ACGTGACG | 0.201
CTAGCAAC | -0.0327
TCCACGCA | -0.0312
GTAGAATA | 0.0756
GGACGCAC | -0.0653
ACACGAAT | 0.266
GTATCGGA | -0.0348
CAGCTCGG | -0.199
AATATGAA | 0.172
CTGCCTGA | -0.0137
ACTACCGA | -0.183
ATTCCGCG | -0.121
AACCTAAT | -0.0324
AAGCCAGA | -0.034
GATGGCCC | -0.202
GAAGACTA | 0.0253
GATAACAA | 0.0871
ATGGCGTA | -0.0835
ACTAACGG | 0.0692
GCTACTTA | -0.00761

Sequence | PBM E-score
CTACTCCA | -0.0599
GACTGAGA | 0.105
ACTCGCCT | -0.0504
AGGGTGGC | -0.114
CGCTCGAG | 0.0681
CATGGTGA | 0.187
GCGTCCCC | -0.291
CTCCACGC | 0.00872
CCCTAGTA | -0.0961
ACCGACCT | -0.0411
AAAACTAC | -0.0222
AGCTGGAC | -0.0422
CTACCTAA | -0.0721
GACTCTGC | 0.0155
GGAATGTA | 0.163
CTTTGGCA | -0.114
GGGCCAAC | -0.177
AAAAGGAA | 0.0172
AACAGGAT | -0.0163
ACCGGACC | -0.113
CCAATGTC | 0.0633
CATGTGAA | -0.147
CATGGCTC | -0.265
GGTCAAAA | 0.144
CCCAGGGC | -0.23

Sequence | PBM E-score
GAGGGATC | -0.219
AGTCGGCG | -0.196
GAAGTTTA | 0.143
ACTCGTGC | -0.073
CCAACGCA | -0.0492
TAAGCAGA | -0.0468
GACGACTC | 0.14
ACCTTAGT | -0.139
CCCAACGA | 0.167
AGACCTCA | 0.0225
AGGACTCA | -0.0358
AACCTGAC | -0.218
AGCTGAAA | 0.108
AGGTACTC | 0.00309
ACCTGCGG | -0.107
CACGATCA | 0.272
CGCATGCC | -0.053
AATGTCCT | -0.0347
ATGGCTCA | -0.186
CAGTGGCG | -0.173
AGATGCTC | 0.0161
GTAGGCCA | 0.0735
CGTCCCAG | -0.0823
ACGTGTTG | 0.143
GAAGTTGC | -0.00688

Sequence | PBM E-score
ACCGATGG | -0.233
AGCTATAC | -0.152
CGACATAA | 0.22
CTCGCAGC | -0.0599
GCTATTTA | 0.0236
GAAGCATA | 0.0655
ATGACGGA | 0.171
AATCATCA | 0.317
ACAGCAGG | -0.00451
CATGGAAA | 0.0198
GAGTGGGA | 0.0759
CCACGCGG | -0.0923
CCCATTAA | -0.138
AAAAGACA | 0.0467
ACGCACTG | -0.0673
ACCGAGAA | 0.0615
CTCCTAAC | -0.0523
CTGTTTAC | 0.0856
ACTCTGCC | -0.0526
CCAGTTAA | 0.0671
AATTCATA | 0.174
CCATAGAC | -0.206
GTTATCCA | 0.00926
AACGTAGG | -0.17
GACCGTCC | -0.0137

Sequence | PBM E-score
AACACGTA | -0.00217
GAGCGCTA | -0.037
GCCAGGAA | -0.102
AGTGACAT | 0.43
CAAAGCTC | -0.259
CCAAACAG | 0.0638
GAGTAGAC | 0.0485
GCCTATAC | -0.203
AGATTCCT | -0.125
ACGAACCA | 0.144
CCATTTGC | -0.0158
GCATCTGA | -0.216
AAACGATT | 0.292
CAGCGAGG | -0.204
CAAGTAAG | -0.0165
TGGAACCA | -0.0857
CGGCAGAA | -0.111
GGTCACGA | 0.27
GCAGTGCC | -0.209
ATATGTCA | 0.289
CAAGGTGA | 0.132
ATAACCGA | 0.0277
